Assay results as given in PubChem BioAssay AID540256 (National Center for Advancing Translational Sciences (NCATS), 2011).
Values joined by “and” are separate entries in the source; they are usually repeats but may differ in a detail not shown here. Identical values can stand only once. Hit rate of the full screen: of about 300,000 compounds, about 3,700 (1.2%) were called active. Inconclusive means that the source gave no clear call. Such entries were picked first, then a sample of the others. The call rests on the fitted dose curve; tested in HEK293 cells. Where the call is inconclusive, the potency comes from a doubtful curve fit.

Assay: qHTS for Inhibitors of binding or entry into cells for Lassa Virus; further: nearly all actives have a fitted effect of over 50% in size
Conditions: Lassa virus pseudotype entry inhibition, cell reporter; series mostly up to 37.9 µM
Potency means the concentration at half of the fitted maximal effect.

Q: Which Potency does the source give for `Cn1nc(C(=O)OCC(=O)Nc2sccc2C(N)=O)c2ccccc2c1=O` here?
A: inactive

Q: With `Cc1c(C)n(C)c2ccc(C(=O)NCCCN3CCN(c4ccc(F)cc4)CC3)cc12` as the molecule, how does the Potency read?
A: inconclusive: 2.24 µM [inhibitor, single point]

Q: With `CCOc1ccc(S(=O)(=O)N2CCC(C(=O)N3CCCCCC3)CC2)cc1C` as the molecule, how does the Potency read?
A: inconclusive: 31.6 µM [inhibitor, partial curve, poor fit]

Q: With `CCN1C2=C(C(=O)CCC2)C(c2ccc(O)c(Br)c2)C2=C1CCCC2=O` as the molecule, how does the Potency read?
A: inconclusive: 11.6 µM [inhibitor, partial curve]

Q: With `NS(=O)(=O)c1ccc(NC(=O)COC(=O)c2cc(Cl)ccc2[N+](=O)[O-])cc1` as the molecule, how does the Potency read?
A: inconclusive: 35.5 µM [activator, single point]

Q: For `Cc1ccc(N2C(=O)CCC(C(=O)O)C2c2cccs2)cc1` (stereo not given), which Potency is on record?
A: inactive

Q: With `CCn1nccc1C(=O)Nc1ccc(Cl)cn1` as the molecule, how does the Potency read?
A: inactive

Q: With `COc1ccccc1NC(=O)c1cc(S(=O)(=O)N2CCCCCC2)ccc1F` as the molecule, how does the Potency read?
A: inconclusive: 25.1 µM [inhibitor, single point]

Q: For `CC12CCC(=O)N1C(C(=O)Nc1nc(-c3cc(F)ccc3F)cs1)CS2` (stereo not given), which Potency is on record?
A: inconclusive: 5.62 µM [inhibitor, partial curve, poor fit]

Q: Which Potency does the source give for `COc1cc(OC)cc(-c2nnc(SCc3ccc(C(=O)O)cc3)o2)c1` here?
A: inconclusive: 3.55 µM [inhibitor, partial curve, poor fit]

Q: Which Potency does the source give for `Cc1ccc(NC(=O)c2cccnc2)cc1S(=O)(=O)N1CCOCC1` here?
A: inactive

Q: Which Potency does the source give for `Cc1ccc(C(C(=O)NC2CCCCC2)N(C(=O)Cc2c[nH]c3ccccc23)c2ccccc2)o1` (stereo not given) here?
A: inconclusive: 8.2 µM [inhibitor, partial curve, poor fit]

Q: Which Potency does the source give for `CCOC(=O)COc1ccccc1C1Nc2ccccc2C(=O)N1c1cccc(Cl)c1` (stereo not given) here?
A: inconclusive: 29.1 µM [activator, single point]

Q: With `COCCN(C(=O)CCC(=O)Nc1nccs1)C(C(=O)NC(C)(C)C)c1ccc(F)cc1` (stereo not given) as the molecule, how does the Potency read?
A: inactive

Q: Which Potency does the source give for `COc1ccc(CN2C3CCCC2CC(NC(=O)Nc2cccc(C)c2)C3)cc1` (stereo not given) here?
A: inconclusive: 23.1 µM [inhibitor, partial curve]

Q: With `CNc1nc(N)c([N+](=O)[O-])c(NCCO)n1` as the molecule, how does the Potency read?
A: inconclusive: 1.26 µM [activator, partial curve]

Q: Which Potency does the source give for `CCC(=NCc1ccc2c(c1)OCO2)c1c(O)n(C2CCCCC2)c(=O)[nH]c1=O` here?
A: active: 13 µM

Q: With `COc1ccc(-c2n[nH]c(C)c2-c2ccc(OC)c(OC)c2)c(O)c1` as the molecule, how does the Potency read?
A: inconclusive: 7.94 µM [inhibitor, partial curve, poor fit]

Q: For `Cc1cc(C)n(C(C)CNC(=O)c2ccc3c(c2)OCO3)n1` (stereo not given), which Potency is on record?
A: inconclusive: 1.78 µM [activator, partial curve, poor fit]

Q: For `CC1CCC(NC(=O)CCNC(=O)c2ccc(Br)cc2)CC1` (stereo not given), which Potency is on record?
A: inconclusive: 11.2 µM [activator, partial curve, poor fit]

Q: With `O=C(CSCC(=O)NN=Cc1ccccc1)NN=Cc1ccccc1` as the molecule, how does the Potency read?
A: inconclusive: 35.5 µM [inhibitor, single point]

Q: For `COc1cccc(NC(=O)CC(C)S(=O)(=O)c2ccc3c(c2)NC(=O)CO3)c1` (stereo not given), which Potency is on record?
A: inactive

Q: For `CN1C(=S)SC(N2OC3C(=O)N(c4ccccc4)C(=O)C3C2c2ccc(Cl)cc2)C1(C)C` (stereo not given), which Potency is on record?
A: inconclusive: 0.708 µM [inhibitor, full curve, poor fit]

Q: For `Cc1nc(N)ncc1C(=O)Nc1ccccc1`, which Potency is on record?
A: inactive

Q: Which Potency does the source give for `Cn1c(N)c(C(=O)COC(=O)C23CC4CC(CC(C4)C2)C3)c(=O)n(C)c1=O` here?
A: inconclusive: 1.58 µM [activator, full curve, poor fit]

Q: With `COC(=O)c1ccc(C(=O)OC)c(NC(=O)COC(=O)c2ccccc2OC)c1` as the molecule, how does the Potency read?
A: inactive

Q: With `O=C(O)c1ccn2c(C(=O)c3ccc(Cl)cc3)c(-c3ccccc3)cc2c1` as the molecule, how does the Potency read?
A: inactive

Q: For `COC(=O)CSc1nnc(CNS(=O)(=O)c2ccc(Cl)cc2)n1C`, which Potency is on record?
A: inactive

Q: With `COC(=O)c1c(C)oc2ccc(N(C(=O)c3ccncc3)S(=O)(=O)c3ccc(C)cc3)cc12` as the molecule, how does the Potency read?
A: inactive

Q: With `CC(=O)Nc1ccc(/C=N/NC(=O)c2cccc(S(=O)(=O)N3CCOCC3)c2)cc1` as the molecule, how does the Potency read?
A: inactive

Q: For `COc1ccccc1CNC(=O)CN(c1ccc(C)cc1)S(=O)(=O)c1c(C)n[nH]c1C`, which Potency is on record?
A: inconclusive: 0.259 µM [activator, single point]

Q: Which Potency does the source give for `CCOc1nc(Nc2ccc([N+](=O)[O-])cc2)nc(NC(C)(C)C)n1` here?
A: inconclusive: 25.9 µM [inhibitor, single point]

Q: Which Potency does the source give for `S=C(Nc1ccccc1)N1CCN(C/C=C/c2ccccc2)CC1` here?
A: inconclusive: 7.94 µM [inhibitor, partial curve, poor fit]

Q: With `CC(=O)C1=NN(c2ccccc2)C(c2ccc3c(c2)OCO3)N1c1ccc(N2CCOCC2)cc1` (stereo not given) as the molecule, how does the Potency read?
A: inactive

Q: Which Potency does the source give for `COc1ccc(/C=C2/C(=O)OCc3cc(OC)c(OC)cc32)c(OC)c1` here?
A: inconclusive: 15.8 µM [inhibitor, single point]

Q: Which Potency does the source give for `COc1cccc(CSc2nc3sc(C)c(C)c3c(=O)n2Cc2ccco2)c1` here?
A: inconclusive: 23.1 µM [inhibitor, single point]

Q: Which Potency does the source give for `Cc1c(C(=O)N2CCOCC2)c(S(=O)(=O)N2CCN(c3ccc(Cl)cc3)CC2)c(C)n1C` here?
A: inactive

Q: For `CCOc1ccccc1NS(=O)(=O)c1ccc(-c2cnc(C3CC3)o2)cc1`, which Potency is on record?
A: inconclusive: 10 µM [inhibitor, partial curve, poor fit]

Q: With `CCCn1c(=N)n(CC(=O)c2ccc(Cl)cc2)c2ccccc21` as the molecule, how does the Potency read?
A: inconclusive: 35.5 µM [inhibitor, single point]

Q: For `CCOc1cccc(N(C(=O)CCC(=O)Nc2cc(C)on2)C(C(=O)NC(C)(C)C)c2ccc(OC)cc2)c1` (stereo not given), which Potency is on record?
A: inactive

Q: For `CO/N=C/c1ccc(N2CCN(C(=O)c3ccc(F)cc3)CC2)c([N+](=O)[O-])c1`, which Potency is on record?
A: inconclusive: 1.3 µM [inhibitor, full curve, poor fit]

Q: Which Potency does the source give for `Cc1ccc(CSc2nc3ccsc3c(=O)n2Cc2ccccn2)cc1` here?
A: inactive

Q: For `Cc1ccc(NC(=O)COC(=O)CN2C(=O)COc3ccccc32)cc1`, which Potency is on record?
A: inactive

Q: For `Cc1cc(C)nc(-n2ncc3c2CC(c2ccc(C(C)C)cc2)CC3=O)n1` (stereo not given), which Potency is on record?
A: inconclusive: 12.6 µM [inhibitor, partial curve, poor fit]

Q: With `O=C(CCC(=O)N1CCCC1)Nc1nnc(C(F)(F)F)s1` as the molecule, how does the Potency read?
A: inactive

Q: For `Cc1ccc(S(=O)c2ccc(NC(=O)C3CC3)cc2C#N)cc1` (stereo not given), which Potency is on record?
A: inconclusive: 22.4 µM [inhibitor, single point]

Q: Which Potency does the source give for `COC(=O)[C@H](C)[C@@H]1C[C@@]1(C)[C@@H](NC(=O)OCc1ccccc1)c1ccccc1` here?
A: inconclusive: 29.1 µM [inhibitor, single point]

Q: With `COc1ccc(C2c3c(C)nn(-c4ccccc4)c3NC(=O)N2c2ccccc2)cc1` (stereo not given) as the molecule, how does the Potency read?
A: inconclusive: 0.562 µM [inhibitor, full curve, poor fit]

Q: Which Potency does the source give for `O=[N+]([O-])/C=C/c1cn(Cc2ccc(Cl)cc2)c2ccccc12` here?
A: inconclusive: 15.8 µM [inhibitor, single point]

Q: With `CCN(CC)C(=O)C(Sc1nnnn1-c1ccc(O)cc1)c1ccccc1` (stereo not given) as the molecule, how does the Potency read?
A: inconclusive: 4.61 µM [inhibitor, full curve, poor fit]

Q: Which Potency does the source give for `Nc1c(C(=O)Nc2ccc(C(=O)O)cc2)sc2nc3c(cc12)CCCC3` here?
A: inconclusive: 35.5 µM [activator, single point]

Q: With `COc1ccccc1CN1CCCC(C(=O)c2ccccc2SC)C1` (stereo not given) as the molecule, how does the Potency read?
A: inconclusive: 35.5 µM [inhibitor, single point]

Q: Which Potency does the source give for `Cc1ccc(NS(=O)(=O)c2ccc3c(c2)CCCN3C(=O)C2CCC2)cc1Cl` here?
A: inconclusive: 11.2 µM [inhibitor, partial curve]

Q: For `CCOC(=O)c1ccc(N/C(=N\S(=O)(=O)c2ccc(F)cc2F)c2ccccc2)cc1`, which Potency is on record?
A: inconclusive: 12.6 µM [inhibitor, partial curve, poor fit]

Q: Which Potency does the source give for `CCCN1C[C@H](CSC)C[C@@H]2c3cccc4[nH]cc(c34)C[C@H]21` here?
A: inactive and inconclusive: 2.31 µM [inhibitor, full curve, poor fit]

Q: With `Cc1ccc(NC(=O)CN2C(=O)C3(SCC(=O)N3c3cccc(Cl)c3)c3ccccc32)cc1C` (stereo not given) as the molecule, how does the Potency read?
A: inconclusive: 2 µM [inhibitor, full curve, poor fit]

Q: With `Cc1[nH]c2ccccc2c1C(=O)C(C)OC(=O)C1CCC1` (stereo not given) as the molecule, how does the Potency read?
A: inconclusive: 0.891 µM [inhibitor, partial curve, poor fit]

Q: Which Potency does the source give for `CCCCN(C(=O)CSc1nnc(Nc2ccc(C)c(C)c2)s1)c1c(N)n(Cc2ccccc2)c(=O)[nH]c1=O` here?
A: inconclusive: 15.8 µM [inhibitor, partial curve, poor fit]

Q: Which Potency does the source give for `Cc1[nH]c(=O)[nH]c(=O)c1S(=O)(=O)N1CCCC1` here?
A: inactive

Q: With `COc1cc(SC)ccc1C(=O)Nc1ncc(C)s1` as the molecule, how does the Potency read?
A: inconclusive: 1.64 µM [inhibitor, full curve, poor fit]

Q: With `Cc1ccc(CS(=O)(=O)c2ncc(Cl)c(C(=O)Nc3nc4ccc(F)cc4s3)n2)cc1` as the molecule, how does the Potency read?
A: inconclusive: 11.2 µM [inhibitor, partial curve, poor fit]

Q: Which Potency does the source give for `O=C1c2ccccc2C(=O)N1CCCCN(C(=O)c1ccc(Cl)s1)c1ccc(Cl)cc1` here?
A: inactive

Q: Which Potency does the source give for `CCC(C)[C@H](NC(=O)c1cc2cc(Cl)ccc2n1C)C(=O)N1CCC(C(=O)O)CC1` (stereo not given in full) here?
A: inactive

Q: With `Cc1ccc(-c2nc3c(c(SCC(=O)Nc4ccccc4Cl)n2)Cc2c(CO)cnc(C)c2O3)cc1` as the molecule, how does the Potency read?
A: inactive

Q: For `Cc1ccc(S(=O)(=O)NC(=O)COc2cc(C)ccc2C(C)C)cc1`, which Potency is on record?
A: inconclusive: 2.24 µM [activator, partial curve, poor fit]
